{"sequences": {"note": "Protein sequences, listed by entry. Tags and fused reporters are not part of them. Residues count along the entry.", "UniProt P27824, residues 21-592": "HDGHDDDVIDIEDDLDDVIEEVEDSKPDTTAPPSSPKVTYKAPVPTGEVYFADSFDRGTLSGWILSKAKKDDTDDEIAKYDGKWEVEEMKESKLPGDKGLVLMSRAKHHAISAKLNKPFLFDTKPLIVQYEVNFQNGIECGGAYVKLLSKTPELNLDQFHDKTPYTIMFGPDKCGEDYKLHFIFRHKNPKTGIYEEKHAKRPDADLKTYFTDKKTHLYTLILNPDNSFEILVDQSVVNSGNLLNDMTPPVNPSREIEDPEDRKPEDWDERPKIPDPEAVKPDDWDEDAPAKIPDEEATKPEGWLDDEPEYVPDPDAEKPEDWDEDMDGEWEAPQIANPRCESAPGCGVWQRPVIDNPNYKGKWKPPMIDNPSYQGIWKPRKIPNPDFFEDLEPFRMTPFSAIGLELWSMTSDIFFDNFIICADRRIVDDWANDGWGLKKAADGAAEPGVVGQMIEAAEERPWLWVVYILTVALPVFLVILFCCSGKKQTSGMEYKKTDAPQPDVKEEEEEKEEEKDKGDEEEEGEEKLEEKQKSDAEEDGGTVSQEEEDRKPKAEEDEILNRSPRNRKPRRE", "UniProt P11021, residues 19-654": "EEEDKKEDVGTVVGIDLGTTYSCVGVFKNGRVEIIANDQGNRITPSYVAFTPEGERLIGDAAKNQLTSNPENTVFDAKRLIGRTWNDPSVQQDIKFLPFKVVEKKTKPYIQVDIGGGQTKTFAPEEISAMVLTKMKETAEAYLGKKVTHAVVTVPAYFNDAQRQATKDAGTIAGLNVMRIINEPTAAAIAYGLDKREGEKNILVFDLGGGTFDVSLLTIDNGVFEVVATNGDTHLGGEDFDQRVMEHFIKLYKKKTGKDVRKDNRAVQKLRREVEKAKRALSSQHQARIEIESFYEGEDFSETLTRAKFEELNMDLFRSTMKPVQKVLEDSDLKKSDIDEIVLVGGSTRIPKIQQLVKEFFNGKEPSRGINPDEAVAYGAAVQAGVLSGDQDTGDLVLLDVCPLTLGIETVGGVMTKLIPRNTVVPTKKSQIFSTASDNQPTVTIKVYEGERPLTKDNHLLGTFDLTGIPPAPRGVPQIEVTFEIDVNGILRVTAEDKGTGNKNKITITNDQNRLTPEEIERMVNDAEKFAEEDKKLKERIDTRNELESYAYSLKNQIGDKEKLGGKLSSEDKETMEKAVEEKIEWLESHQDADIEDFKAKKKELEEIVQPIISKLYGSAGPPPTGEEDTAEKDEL", "UniProt P13498": "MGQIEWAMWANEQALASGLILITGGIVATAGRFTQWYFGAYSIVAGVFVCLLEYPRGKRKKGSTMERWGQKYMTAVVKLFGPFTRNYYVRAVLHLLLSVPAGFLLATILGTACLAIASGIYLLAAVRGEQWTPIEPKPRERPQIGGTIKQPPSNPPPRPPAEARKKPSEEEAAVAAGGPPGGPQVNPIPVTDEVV"}, "source": "paper PMC4807287", "key": {"[1]": {"target": "T1, NADPH oxidase 4 (human NOX4), overexpressed in HEK293 cells (human) (UniProt Q9NPH5)", "T1 sequence": "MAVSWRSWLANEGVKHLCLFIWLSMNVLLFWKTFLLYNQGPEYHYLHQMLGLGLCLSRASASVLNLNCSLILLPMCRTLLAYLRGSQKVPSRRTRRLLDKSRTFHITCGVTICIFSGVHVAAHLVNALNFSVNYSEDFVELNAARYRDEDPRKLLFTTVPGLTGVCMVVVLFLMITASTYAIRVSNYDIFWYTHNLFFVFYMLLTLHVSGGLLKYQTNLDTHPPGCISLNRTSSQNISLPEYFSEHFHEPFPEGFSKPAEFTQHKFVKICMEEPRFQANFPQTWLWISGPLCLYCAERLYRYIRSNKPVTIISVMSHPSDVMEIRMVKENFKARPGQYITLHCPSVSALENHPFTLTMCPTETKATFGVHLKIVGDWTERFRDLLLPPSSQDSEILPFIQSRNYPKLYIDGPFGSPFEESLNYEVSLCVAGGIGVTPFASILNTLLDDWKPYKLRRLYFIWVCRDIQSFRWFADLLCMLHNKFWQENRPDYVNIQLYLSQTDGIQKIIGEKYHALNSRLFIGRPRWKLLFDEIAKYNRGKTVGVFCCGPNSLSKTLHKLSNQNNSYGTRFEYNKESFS", "test": "affinity purification with mass spectrometry; quantitative SILAC-based Co-IP (qCo-IP): NOX4 antibody covalently linked to magnetic protein G beads; HEK293 (Ctl) and NOX4-HEK293 cells lysed with 1% digitonin (n = 2), or 100,000 x g total membranes solubilised with digitonin 6 g/g protein (n = 3); forward and reverse labelling; threshold log2 ratio >0.5"}, "[2]": {"target": "T1, NADPH oxidase 4 (human NOX4), overexpressed in HEK293 cells (human)", "test": "affinity purification with mass spectrometry; quantitative SILAC-based Co-IP (qCo-IP): NOX4 antibody covalently linked to magnetic protein G beads; HEK293 (Ctl) and NOX4-HEK293 cells lysed with 1% digitonin (n = 2), or 100,000 x g total membranes solubilised with digitonin 6 g/g protein (n = 3); forward and reverse labelling; threshold log2 ratio >0.5", "remark": "listed apart in the source"}}, "note": "Where two headings read alike, the source gives them in different places. Results are given in words; binding and its absence hold for the method and conditions named. In cells and extracts the contact can be indirect. Here binding means that the protein was enriched with, or labelled near, the bait; the list need not be complete.", "data": [{"molecule": "Calnexin, endogenous in HEK293 cells (from UniProt P27824 21-592)", "values": [{"measurement": "binding", "setting": "[1]", "value": "binds"}]}, {"molecule": "SERCA2b/ATP2A2 (sarco/endoplasmic reticulum Ca2+-ATPase 2b), endogenous in HEK293 cells (from UniProt P16615-1 1-1042)", "values": [{"measurement": "binding", "setting": "[1]", "value": "binds"}]}, {"molecule": "78-kDa glucose-regulated protein (HSPA5/Grp78), endogenous in HEK293 cells (from UniProt P11021 19-654)", "values": [{"measurement": "binding", "setting": "[1]", "value": "binds"}]}, {"molecule": "p22phox/CYBA, endogenous in HEK293 cells (from UniProt P13498 1-195)", "values": [{"measurement": "binding", "setting": "[1]", "value": "binds"}]}, {"molecule": "Calmegin (CLGN), endogenous in HEK293 cells (protein, UniProt O14967 20-610) EFMDDDVETEDFEENSEEIDVNESELSSEIKYKTPQPIGEVYFAETFDSGRLAGWVLSKAKKDDMDEEISIYDGRWEIEELKENQVPGDRGLVLKSRAKHHAISAVLAKPFIFADKPLIVQYEVNFQDGIDCGGAYIKLLADTDDLILENFYDKTSYIIMFGPDKCGEDYKLHFIFRHKHPKTGVFEEKHAKPPDVDLKKFFTDRKTHLYTLVMNPDDTFEVLVDQTVVNKGSLLEDVVPPIKPPKEIEDPNDKKPEEWDERAKIPDPSAVKPEDWDESEPAQIEDSSVVKPAGWLDDEPKFIPDPNAEKPDDWNEDTDGEWEAPQILNPACRIGCGEWKPPMIDNPKYKGVWRPPLVDNPNYQGIWSPRKIPNPDYFEDDHPFLLTSFSALGLELWSMTSDIYFDNFIICSEKEVADHWAADGWRWKIMIANANKPGVLKQLMAAAEGHPWLWLIYLVTAGVPIALITSFCWPRKVKKKHKDTEYKKTDICIPQTKGVLEQEEKEEKAALEKPMDLEEEKKQNDGEMLEKEEESEPEEKSEEEIEIIEGQEESNQSNKSGSEDEMKEADESTGSGDGPIKSVRKRRVRKD", "values": [{"measurement": "binding", "setting": "[2]", "value": "binds"}]}]}
